Results are given in words; binding and its absence hold for the method and conditions named. Binding seen in cells or lysates may run through a third protein. Binding calls can cover weak binding; strength is not graded here. Where a sequence is shown, tags or fusion partners need not be part of it.
Columns and labels:
Myc-Cyr1 (C. albicans) = experiment: co-IP; C. albicans cell lysates on HA or Myc antibody beads, 4°C, ≥1 h; five washes in lysis buffer (50 mM Tris-HCl pH 7.4, 150 mM KCl, 1% NP-40); Western blot with αMyc or αHA
HA-Cyr1 (C. albicans) = experiment: as above

B1: Mp65-HA (protein, UniProt Q59XX2 33-378)
chain: AVHVVTTTNVVVVTIGNGDQTTTFAAPSVAAESSVSVSVNTEPPQNHPTTTQDVASASTYPSSTDGSAASSSAAASSSSQAGSEPSGGVGSGGAKGITYSPYSDNGGCKSESQIASEIAQLSGFDVIRLYGVDCSQVEAVLKAKTSSQKIFAGIFDVSSITSGIESLAEAVKSCGSWDDIYTVSIGNELVNAGSATPSQIKAYVEEGRKALKAAGYTGPVVSVDTFIAVINNPDLCDYSDYMAVNAHAFFDGHVVAENSGAWVLQQIQRVWTACGGKKNVLITETGWPSRGDSNGVAVPSKSNQQAAISSIKSSCGASAILFTAFNDLWKADGPYNAEKYWGIYSN
For B1, the binding (Myc-Cyr1 (C. albicans)) was “binds”.

B2: Sln1-Myc (protein, UniProt Q5A872 1-1373)
chain: MRRLKIGIRPQLIIIVCFASLFSLLILGIVTGIYFSANLKNLRLERLLVISQLKRTQVQQAIQYIAYQVMTVSEVDSLTVPLSNYRAGNNSKAVFSEAQNYLQQYVLTTDSFTAARLYDLDLQVVASSFDNMTLISESAQDVVYPLQPNRSMPPVLGTPSGLYFTGPIANNSDNFNSRYFMGITVPVLSNSSIILSQPSISGYLTIVAAAESIRSALNSTSEDDYQAMAVQPVYGDPQKGIDNLSQNAYNGDNEVIGFKLVFPVENSLLEAGTIYNINSSSSMKTALASNSGTATGVKSFFGKKVAIGFSRISVQDNLNWSIVIVQSNSVFNGPANKLRKITIGVVIGIGAFMCFVTFPLAVWFIRPITKLKEATEAITKYKKEKLNSVNSNSPTSGSGSGSGSGSGSRANSDSSADQSLSLDTGKRNSINSSSFSSSYSTGIRLPARIPRSKKIFKDELTELSEAFNIMTEELDKQYTHLEDRVKLRTKELEASKIQAEAANEAKTVFIANISHELRTPLNGILGMTSIAMEEEDPNVIHDSLKLIHRSGELLLHILTELLTYSKNTLNRSKLEKSNFQILEIVYQVRSIFNKLAHDQRVNFKILVKPNIFRKLIIYGDSNRIIQIVMNLVSNSLKFTPVDGSVSVSFKLLGEYDHERSKKLDYKKVCILNDSSSSTVAVPPPTPPSDTKPNPKPKSTPTPKPDPTRSHLVDHNNRSANTTSPLTPVRKPTNQTKNKSITNNVTKQNMKIRKKKKTNKNLHNNNNNNKNDNSDFLMNRRLSGSHKFNNTNDEELSPTAIEKNIDKYLTSSADSDNISVTTLSTVQYETTIFESQFKSKPLPALPVDAKPQVSGKIDENDVNDEDPSGGSIKDDDSEDTINEKQGISSSPSSSSSSNEKQENSPRSNDSTTVTVTRPRHNMMPSAQDFKSYPTFDKKPEYDSNMSNNEIVKNNRVYRIRNMYQPKVWVIQIEVTDTGPGIEPALQEKVFEPFVQGDQTLSRSYGGTGLGLSICRQLATMMHGTLTLKSTIGKGSTFTLTLPLPQTGEIMVPPEDMAEFCEDEFNPAAKINRKVAFEDGDIDTESQQQENPSSEEDTQGDRNVQSSTSSSPPNSSSTDSALPASDSSDIGGTNKSKTTSHGNNKNINAKKRIITNSSASSTKGTKRHTNNDGGGGVNGNHSDDNKDLTLTIDKPSLFTRGSTGTANSGTTSSHSDKKILYPTPTTTTTTTTTTDHTTVLDDISHLRVLVAEDNSVNQEVISRMLKQEGITNLTMACNGAKAIDFVKESIENNENFDLIFMDVQMPEVDGLKATKMIRKNLQYNKPIIALTAFADESNVKECLNSGMSGFITKPISKTNIKKVLVEFLSNEVVTS
For B2, the binding (HA-Cyr1 (C. albicans)) was “binds”.

— PMC9769623
